Data reported in the supplement of paper PMC6078165.

Tested on: BT20
Assay: relative JC-1 red fluorescence (viability) vs pre-drug, coculture with fibroblast (fraction); higher = more viable cancer cells
Conditions: 1 µM
Protocol: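 JC-1 labelled TNBC cells cocultured 1:1 (1,500 cells each) with CellTrace Violet stained primary or stromal fibroblasts in 384-well plates in FluoroBrite medium, treated with one of 42 anticancer drugs at 0.1, 1, 10 or 100 uM. JC-1 red fluorescence (mitochondrial integrity in cancer cells only) was read by plate reader every 8 h for 72 h. Values are normalised to each well's pre-drug value. The stock of one drug was tenfold lower, so its dose labels may be too high.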

COc1cc([C@@H]2c3cc4c(cc3[C@@H](O[C@@H]3O[C@@H]5CO[C@@H](c6cccs6)O[C@H]5[C@H](O)[C@H]3O)[C@H]3COC(=O)[C@H]23)OCO4)cc(OC)c1O [Teniposide]
relative JC-1 red fluorescence
Conditions | 8 h | 16 h | 24 h | 32 h | 40 h | 48 h | 56 h | 64 h | 72 h
coculture fibroblast: C12385 | 0.8913 ± 0.0058 | 0.84 ± 0.019 | 0.813 ± 0.083 | 0.751 ± 0.11 | 0.679 ± 0.14 | 0.654 ± 0.16 | 0.628 ± 0.18 | 0.633 ± 0.18 | 0.627 ± 0.18
coculture fibroblast: H6013 | 0.936 ± 0.03 | 0.899 ± 0.028 | 0.884 ± 0.034 | 0.8261 ± 0.0081 | 0.79 ± 0.019 | 0.771 ± 0.023 | 0.779 ± 0.033 | 0.766 ± 0.034 | 0.751 ± 0.037
coculture fibroblast: H6019 | 0.8461 ± 0.0067 | 0.772 ± 0.018 | 0.759 ± 0.022 | 0.666 ± 0.029 | 0.602 ± 0.028 | 0.586 ± 0.029 | 0.554 ± 0.021 | 0.54 ± 0.031 | 0.529 ± 0.028
coculture fibroblast: H6076 | 0.9671 ± 0.0071 | 0.8909 ± 0.0064 | 0.813 ± 0.042 | 0.756 ± 0.043 | 0.729 ± 0.051 | 0.697 ± 0.045 | 0.706 ± 0.056 | 0.699 ± 0.057 | 0.683 ± 0.045
coculture fibroblast: H6231 | 0.846 ± 0.18 | 0.872 ± 0.011 | 0.776 ± 0.0083 | 0.71341 ± 0.00039 | 0.6613 ± 0.006 | 0.607 ± 0.015 | 0.576 ± 0.031 | 0.56 ± 0.034 | 0.55 ± 0.037
coculture fibroblast: HADF | 0.9678 ± 0.0051 | 0.925 ± 0.021 | 0.878 ± 0.048 | 0.799 ± 0.049 | 0.748 ± 0.078 | 0.695 ± 0.078 | 0.686 ± 0.097 | 0.668 ± 0.12 | 0.639 ± 0.13
coculture fibroblast: HCFa | 0.936 ± 0.012 | 0.887 ± 0.022 | 0.846 ± 0.034 | 0.763 ± 0.026 | 0.705 ± 0.034 | 0.659 ± 0.023 | 0.6234 ± 0.0019 | 0.584 ± 0.016 | 0.544 ± 0.0098
coculture fibroblast: HCPF | 0.9918 ± 0.0059 | 0.906 ± 0.0044 | 0.8504 ± 0.0016 | 0.787 ± 0.013 | 0.7509 ± 0.0064 | 0.713 ± 0.013 | 0.6876 ± 0.0013 | 0.673 ± 0.00078 | 0.66 ± 0.012
coculture fibroblast: HHSteC | 0.887 ± 0.049 | 0.836 ± 0.13 | 0.87 ± 0.081 | 0.833 ± 0.017 | 0.8116 ± 0.0046 | 0.829 ± 0.057 | 0.871 ± 0.092 | 0.786 ± 0.00096 | 0.786 ± 0.033
coculture fibroblast: HMF | 0.9244 ± 0.0022 | 0.866 ± 0.018 | 0.77207 ± 0.0006 | 0.6947 ± 0.0029 | 0.652 ± 0.011 | 0.608 ± 0.0093 | 0.581 ± 0.029 | 0.561 ± 0.035 | 0.535 ± 0.039
coculture fibroblast: HPFa | 0.976 ± 0.01 | 0.966 ± 0.043 | 0.898 ± 0.091 | 0.906 ± 0.062 | 0.885 ± 0.11 | 0.835 ± 0.12 | 0.826 ± 0.14 | 0.81 ± 0.15 | 0.78 ± 0.16
coculture fibroblast: HUF | 0.886 ± 0.017 | 0.783 ± 0.0028 | 0.73176 ± 0.00057 | 0.633 ± 0.012 | 0.5806 ± 0.0038 | 0.549 ± 0.0065 | 0.537 ± 0.0065 | 0.522 ± 0.014 | 0.51 ± 0.013
coculture fibroblast: Hs5 | 0.938 ± 0.029 | 0.925 ± 0.038 | 0.856 ± 0.075 | 0.806 ± 0.074 | 0.777 ± 0.075 | 0.746 ± 0.076 | 0.727 ± 0.091 | 0.716 ± 0.1 | 0.704 ± 0.097
coculture fibroblast: Hs27A | 0.837 ± 0.19 | 0.823 ± 0.17 | 0.917 ± 0.032 | 0.949 ± 0.054 | 0.937 ± 0.057 | 0.933 ± 0.067 | 0.942 ± 0.048 | 0.945 ± 0.051 | 0.922 ± 0.032
coculture fibroblast: Hs343T | 0.935 ± 0.054 | 0.875 ± 0.014 | 0.778 ± 0.0023 | 0.7061 ± 0.007 | 0.651 ± 0.0068 | 0.5904 ± 0.0045 | 0.5525 ± 0.0035 | 0.526 ± 0.0057 | 0.508 ± 0.015
coculture fibroblast: WS1 | 0.834 ± 0.013 | 0.741 ± 0.012 | 0.69 ± 0.013 | 0.593 ± 0.011 | 0.515 ± 0.015 | 0.479 ± 0.028 | 0.464 ± 0.044 | 0.452 ± 0.055 | 0.451 ± 0.057

± gives the standard deviation of the averaged measurements. The reference is the same well before dosing, and untreated signal decays as well.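 Labels refer to human fibroblasts, largely primary: uterine (C12385, HUF), lung (H6013), bone (Hs27A), adrenal (HADF), skin (WS1), plus mammary HMF and breast cancer-associated Hs343T. Cancer lines are basal-like or mesenchymal-like triple-negative breast cancer. The paper counts as hits responses shifting over 3x the replicate standard deviation. The tissue of the other fibroblasts is not given here.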
